This passage reports binding results from paper PMC9649770.

The chains behind the UniProt entries cited, without tags or fusion partners.
UniProt Q14145: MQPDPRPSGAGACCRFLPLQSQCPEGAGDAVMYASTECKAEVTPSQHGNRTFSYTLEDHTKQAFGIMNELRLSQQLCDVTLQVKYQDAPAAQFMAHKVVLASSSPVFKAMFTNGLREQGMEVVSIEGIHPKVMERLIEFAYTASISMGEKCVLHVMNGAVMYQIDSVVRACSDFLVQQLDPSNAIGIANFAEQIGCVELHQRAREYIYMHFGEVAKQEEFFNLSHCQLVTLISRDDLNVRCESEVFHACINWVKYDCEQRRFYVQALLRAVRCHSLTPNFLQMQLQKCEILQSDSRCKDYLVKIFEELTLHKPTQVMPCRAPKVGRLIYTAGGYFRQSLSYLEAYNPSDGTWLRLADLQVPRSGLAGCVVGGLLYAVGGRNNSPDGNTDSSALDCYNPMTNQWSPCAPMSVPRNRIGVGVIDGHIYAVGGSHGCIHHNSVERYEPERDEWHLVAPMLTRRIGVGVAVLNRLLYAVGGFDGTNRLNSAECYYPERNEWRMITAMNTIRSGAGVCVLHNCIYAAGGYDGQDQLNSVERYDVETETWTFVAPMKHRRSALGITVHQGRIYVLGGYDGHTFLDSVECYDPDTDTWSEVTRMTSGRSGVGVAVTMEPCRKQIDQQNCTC

Results are given in words; binding and its absence hold for the method and conditions named. In cells and extracts the contact can be indirect. These calls come from enrichment with a bait or labelling near it, and not all partners need be listed. Sequences can lack the tags named with a protein.

For this assay, the target named is T1, TurboID N-terminally fused to OTUD1 (human) (UniProt Q5VV17).
T1 sequence: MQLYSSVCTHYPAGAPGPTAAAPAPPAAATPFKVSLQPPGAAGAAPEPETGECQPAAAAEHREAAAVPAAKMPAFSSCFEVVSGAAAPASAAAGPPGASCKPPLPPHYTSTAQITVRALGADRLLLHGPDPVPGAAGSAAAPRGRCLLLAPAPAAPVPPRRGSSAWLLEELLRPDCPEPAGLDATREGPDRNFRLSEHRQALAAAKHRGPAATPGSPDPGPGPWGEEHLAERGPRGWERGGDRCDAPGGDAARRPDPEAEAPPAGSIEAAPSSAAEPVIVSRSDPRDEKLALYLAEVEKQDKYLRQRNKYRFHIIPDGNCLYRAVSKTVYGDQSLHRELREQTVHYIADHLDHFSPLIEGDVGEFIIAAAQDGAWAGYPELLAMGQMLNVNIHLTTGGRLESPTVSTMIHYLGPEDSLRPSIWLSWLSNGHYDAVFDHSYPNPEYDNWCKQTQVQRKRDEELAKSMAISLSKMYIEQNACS
The assay can be described thus: proximity labelling; TurboID-OTUD1 (control: TurboID only) induced with doxycycline in HEK 293 cells, 50 uM biotin for 1 h, lysis in 8 M urea buffer, streptavidin sepharose, on-bead trypsin digestion, mass spectrometry with label-free quantification.

Regarding “E3-ligase KEAP1 (from UniProt Q14145 1-624)”, the binding entry was “binds”.

B1: peroxiredoxin 4 (PRDX4) (protein, UniProt Q13162 38-271)
chain: WETEERPRTREEECHFYAGGQVYPGEASRVSVADHSLHLSKAKISKPAPYWEGTAVIDGEFKELKLTDYRGKYLVFFFYPLDFTFVCPTEIIAFGDRLEEFRSINTEVVACSVDSQFTHLAWINTPRRQGGLGPIRIPLLSDLTHQISKDYGVYLEDSGHTLRGLFIIDDKGILRQITLNDLPVGRSVDETLRLVQAFQYTDKHGEVCPAGWKPGSETIIPDPAGKLKYFDKLN
With B1, the binding result was “binds”.
